Source: PMC11429822
No constants are given. Whether binding was seen depends on the method and setting. In cells and extracts the contact can be indirect.

Amino acid sequences for entries named in this document (tags omitted).
UniProt Q04206: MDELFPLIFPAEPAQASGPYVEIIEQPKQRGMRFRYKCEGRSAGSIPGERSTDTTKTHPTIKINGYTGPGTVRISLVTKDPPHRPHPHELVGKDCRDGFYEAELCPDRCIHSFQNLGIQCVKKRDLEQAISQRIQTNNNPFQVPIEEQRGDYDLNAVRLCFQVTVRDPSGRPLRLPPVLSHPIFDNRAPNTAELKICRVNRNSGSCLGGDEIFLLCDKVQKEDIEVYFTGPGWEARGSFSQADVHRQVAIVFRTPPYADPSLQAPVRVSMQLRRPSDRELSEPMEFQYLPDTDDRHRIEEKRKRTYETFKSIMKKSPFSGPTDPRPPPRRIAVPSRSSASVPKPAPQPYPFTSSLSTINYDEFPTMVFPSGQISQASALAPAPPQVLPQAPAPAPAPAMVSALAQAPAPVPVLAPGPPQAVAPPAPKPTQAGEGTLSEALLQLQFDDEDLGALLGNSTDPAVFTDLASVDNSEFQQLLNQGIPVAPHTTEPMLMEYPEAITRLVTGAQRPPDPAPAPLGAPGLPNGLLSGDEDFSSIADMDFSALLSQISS

T1: NF-κB p52 (human (endogenous in SNU719)), Q00653
T1 chain: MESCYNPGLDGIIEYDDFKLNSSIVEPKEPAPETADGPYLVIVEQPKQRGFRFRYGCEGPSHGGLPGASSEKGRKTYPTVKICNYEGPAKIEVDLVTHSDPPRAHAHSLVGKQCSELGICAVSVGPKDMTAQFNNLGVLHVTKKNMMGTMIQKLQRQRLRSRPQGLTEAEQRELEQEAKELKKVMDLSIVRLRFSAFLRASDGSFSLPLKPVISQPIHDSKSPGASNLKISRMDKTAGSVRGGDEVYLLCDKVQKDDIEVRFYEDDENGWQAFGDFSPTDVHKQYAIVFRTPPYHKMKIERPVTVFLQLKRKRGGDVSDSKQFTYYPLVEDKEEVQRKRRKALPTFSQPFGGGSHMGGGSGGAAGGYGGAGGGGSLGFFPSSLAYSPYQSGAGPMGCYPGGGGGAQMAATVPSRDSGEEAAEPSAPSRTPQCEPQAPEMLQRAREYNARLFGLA


Tests used:
[1] = target: NF-κB p65 (human (endogenous in SNU719)) (UniProt Q04206); experiment: co-IP; SNU719 cells treated with 100 nM DHT for 48 h, lysed in RIPA lysis buffer; IP with anti-p65 Ab or anti-NF-κB2 p100/52 Ab at 4 °C overnight, Dynabeads Protein G, washed thrice with lysis buffer; Western blot with anti-AR Ab; rabbit IgG as negative control
[2] = target: T1, NF-κB p52 (human (endogenous in …)); experiment: as above; details: remark: other sources report otherwise

binding [1]	binding [2]	Molecule
no binding	–	androgen receptor (from UniProt P10275 1-920)
–	no binding	androgen receptor, P10275 1-920 (protein) MEVQLGLGRVYPRPPSKTYRGAFQNLFQSVREVIQNPGPRHPEAASAAPPGASLLLLQQQQQQQQQQQQQQQQQQQQQQQETSPRQQQQQQGEDGSPQAHRRGPTGYLVLDEEQQPSQPQSALECHPERGCVPEPGAAVAASKGLPQQLPAPPDEDDSAAPSTLSLLGPTFPGLSSCSADLKDILSEASTMQLLQQQQQEAVSEGSSSGRAREASGAPTSSKDNYLGGTSTISDNAKELCKAVSVSMGLGVEALEHLSPGEQLRGDCMYAPLLGVPPAVRPTPCAPLAECKGSLLDDSAGKSTEDTAEYSPFKGGYTKGLEGESLGCSGSAAAGSSGTLELPSTLSLYKSGALDEAAAYQSRDYYNFPLALAGPPPPPPPPHPHARIKLENPLDYGSAWAAAAAQCRYGDLASLHGAGAAGPGSGSPSAAASSSWHTLFTAEEGQLYGPCGGGGGGGGGGGGGGGGGGGGGGGEAGAVAPYGYTRPPQGLAGQESDFTAPDVWYPGGMVSRVPYPSPTCVKSEMGPWMDSYSGPYGDMRLETARDHVLPIDYYFPPQKTCLICGDEASGCHYGALTCGSCKVFFKRAAEGKQKYLCASRNDCTIDKFRRKNCPSCRLRKCYEAGMTLGARKLKKLGNLKLQEEGEASSTTSPTEETTQKLTVSHIEGYECQPIFLNVLEAIEPGVVCAGHDNNQPDSFAALLSSLNELGERQLVHVVKWAKALPGFRNLHVDDQMAVIQYSWMGLMVFAMGWRSFTNVNSRMLYFAPDLVFNEYRMHKSRMYSQCVRMRHLSQEFGWLQITPQEFLCMKALLLFSIIPVDGLKNQKFFDELRMNYIKELDRIIACKRKNPTSCSRRFYQLTKLLDSVQPIARELHQFTFDLLIKSHMVSVDFPEMMAEIISVQVPKILSGKVKPIYFHTQ
